Most values lie at the floor of the assay. Slopes are relative: functional sequences can read slightly below zero.
Test system: Saccharomyces cerevisiae PS128 hsf1 delta, HSF1(1-493) fusion
Test: growth estimate (transactivation domain function in HSF1 fusion, heat-shock survival) (a.u. (slope of normalised read count over time)); higher = stronger growth at 37°C, i.e. more transactivation activity
Conditions: library: random library

Substance	growth estimate
TVICAPDRRRNAGCVAAG	< -0.25
YAVSGVRTVGLGLFSGRFRV	< -0.25
WHMIQDGLLVK	< -0.25
AQCKGNKWCH	< -0.25
RRHPNPGG	-0.241
RVFVFPLYV	< -0.25
PRVTVHTVPAATGDR	< -0.25
TLGSGTG	< -0.25
AGTLPSSIVVGRSLIQLFV	< -0.25
HWAPSMNVFVLVLRAVERRL	< -0.25
TGASPFRSRSIFVYGSRIIR	< -0.25
SPLRSVLIKIYNLLEPQRCA	< -0.25
LSTKPRLGDDWRPVFQGRHS	< -0.25
TKTVISSTAG	-0.231
LGVVIHYWKSMPNEFL	< -0.25
QGHRRIAEVRILLGVSPGYV	< -0.25
LLWNNQGVVLGCQRDNFEH	< -0.25
PHREESSLGET	< -0.25
GRRYRFAST	< -0.25
VID	< -0.25
LRREETSDGYTI	< -0.25
EPGPCL	-0.236
RSWAGSVRSLKIK	< -0.25
TGVGAYAKPFGNYARFAITH	< -0.25
PRECRAEEPFVGG	< -0.25
ASLTRQGTDRGTPC	< -0.25

Substance	growth estimate
RRRVSVRLTGRGLLHVPDAS	< -0.25
PDPGYSSEVKPAVYG	< -0.25
LSRTCQTPSSCGPTGSPISP	< -0.25
AVLRPTGYPAYAVAPSLHVG	< -0.25
KNRASHCRVNYSGISIA	< -0.25
SSEVRHAT	< -0.25
TQSWRQTTRCISFMLAVGGG	< -0.25
TPGLVHYR	< -0.25
RGHCQPSYSVPWQ	< -0.25
SGRAGGGWWRASPAAKPLRL	< -0.25
SEWAGDPFTPHAISARMWWA	-0.2
REGLVEESVNGMRGRFGRAS	< -0.25
AHWCGPCRARTPTRPARSYD	< -0.25
FHA	< -0.25
GSLICGVIASEARSL	< -0.25
PQFGCRKAATSWASSRQART	-0.245
STGQFFVGGTLTLASL	< -0.25
QDPMLW	< -0.25
LIGVDMIGSRGGTC	-0.188
TLMREITLSIGGRTMVSMCP	< -0.25
RYRSNTRLGRWTGGPTACED	< -0.253
VTLG	< -0.25
TGDSFLGSVIEGYWY	< -0.25
DQLHHALAVRVSSRA	< -0.25
CGQIELAWLRKFVVIARRLK	< -0.25
YAVERRGLIVRPLIRRRS	< -0.25

Substance	growth estimate
ECHWCLFVRTDTPYVSGPRW	< -0.25
TCIRESSDQVRYCAAEKGAK	< -0.25
TRSDASAEV	< -0.25
TNGGYRQG	< -0.25
IDVGLFIRRACAKLIATTVA	< -0.25
EVIRSKS	< -0.25
PSIFLATLMTHVRQPRESRR	-0.243
IAVGRVKGNPSPNAMV	< -0.25
GPGMALCRSRLSSARYMSQY	< -0.25
KRENVRRSYERA	< -0.25
PIFNRTNLSNRLVRRSDGPR	< -0.25
MLHHGVYMILRVVPEVLFFG	< -0.25
SRYARITSVANI	< -0.25
SSFSE	-0.25
AERNQSTFGRRFRRTGESSE	< -0.25
ARGSPSVR	< -0.25
DSVGTCPVGASKHRAV	< -0.25
HDP	< -0.25
NSVALDAASGVHFSSITEGI	< -0.25
RLCYREVNWQVLVVAEVLSP	< -0.25
VCYGRRTFLLDGGGAAEVQT	-0.231
TSI	< -0.25
FYLLLKRERCVSFR	< -0.25
GLLQQPSKTLG	< -0.25
AAVL	< -0.25
EVTIQSLSWNRWMSRGKIGR	< -0.25

Single values from the results shown.
growth estimate, IAVGRVKGNPSPNAMV is entered as < -0.25
growth estimate, TCIRESSDQVRYCAAEKGAK is entered as < -0.25
growth estimate, RLCYREVNWQVLVVAEVLSP is entered as < -0.25
growth estimate, GLLQQPSKTLG is entered as < -0.25
growth estimate, TRSDASAEV is entered as < -0.25

Remaining list, next part

Substance	growth estimate
VLGRHWRYSR	< -0.25
SMMRRTV	< -0.25
CSYRDLCRNKATKEVNKRFV	< -0.25
SCISRHPSYRSRHRRAFVSP	< -0.25
SGLALSQAYER	-0.243
HLSIARLKSWGISQRGRASG	< -0.25
IWERPHLPLRA	< -0.25
GAW	< -0.25
LSAVILLD	< -0.25
YGRVITWQA	< -0.25
WPDMAGGIREGGMGIRDFSS	< -0.25
STRSSVS	< -0.25
GYMSGFICIGVMSGRRFKGQ	< -0.25
SIGKRPTSGRLYRGGHPQAH	< -0.25
MIRLF	< -0.25
LFDIHLP	< -0.25
HCRFTG	< -0.25
RVRGYTVYLACVQKRHLGCV	< -0.25
SWVYPEPLMWKKLLFAGTFN	< -0.25
SIRELLQAILGTPTSALRWW	< -0.25
VTRPSGS	< -0.25
FELGDAAQLIPT	< -0.25
TRV	< -0.25
LAWRTRAL	< -0.25
FVVRSTGRNRIIHTGW	< -0.25
SLVPSHS	< -0.25

Substance	growth estimate
SSPVLSL	< -0.25
ILRPSPSRVTQLGSLAGSAA	< -0.25
TIGSGGVAARVSRWPVREDG	< -0.25
VIMGLEWSLVFQP	< -0.25
RLPWTRCTEERGNSR	< -0.25
SSKGGQVSGLSRR	< -0.25
ALRV	< -0.25
DQSVAETVRAMDVVRGPPVH	< -0.25
IHWIPKSSNVSHSRNSV	-0.245
CINMVAGVATLSMPRPGPRV	< -0.25
LTQVP	< -0.25
GLQGRA	< -0.25
PLANRLKMSLEGSLARLLIH	< -0.25
LADGLLEG	< -0.25
MAGCSRSTSGRDFIFSLPRL	< -0.25
VHPVCLSFSLTL	< -0.25
CSRVKVPLCLF	-0.243
WGKLEDYVYTSSSVVFVGRL	< -0.25
DVGGFTSLSVLMFFVAYFSS	< -0.25
HQNPAETTSGWNDTDLSYGI	< -0.25
VEILFKGHL	< -0.25
SDKARTLL	< -0.25
GSEATGGGGGIVPPVYPSIF	< -0.25
LRPGPRTNAWFGASNLSERN	< -0.25
VSD	< -0.25
AGSYRF	< -0.25

Substance	growth estimate
NFPVCPTLAPC	< -0.25
RSYVV	< -0.25
VSVHRVT	< -0.25
APVGQRTCAFCLY	< -0.25
YLAESLFFQPENSSGTLRAS	< -0.25
KPMGTISICKYQCRVRVEYT	< -0.25
NGGAYGPVVDRHPWQGITSS	< -0.25
VPWRP	< -0.25
AREAWLRWEWNGRGSVAYSQ	< -0.25
SFYLVGLRGRFQ	< -0.25
GGEALTQICPYRPLGP	-0.162
RATAAGVPKGSLNCIPGINL	< -0.25
IGFTWIRPVDMCFV	< -0.25
GCTQIKGSDRF	< -0.25
TRGESQIQVSGVYGCESVQA	-0.246
MHGFLSSDNKEYLGGDSTLI	-0.248
PFATYIYCDHQPIG	< -0.25
PGCE	< -0.25
IEYILARAWFQMDRLMALVE	< -0.25
VVWKPVTLVGL	< -0.25
PLPGRLVQKERQHCRDPTAY	< -0.25
FLLDFYTRYHTASEERGSVD	-0.249
AKPTARANTRG	< -0.25
DALHGQAHLGTLLTGSIGLA	< -0.25
DAFYGVSRHSSADAPVCSDQ	< -0.25
SRNV	< -0.25

Substance	growth estimate
LVGLARLLWGVVRSIPHHLT	< -0.25
KLLLVIAYPVEHHVPQLQAT	< -0.25
LARGEMVCL	< -0.25
VLPAPIRARYKESNK	< -0.25
DTPSCNA	< -0.25
IHT	-0.246
YIVCAHLNRF	< -0.25
HSVPLRAGGLTG	< -0.25
PSAGSTDPQIYSAIRAFPYR	< -0.25
RSVSAMLVPASLISGVGSQP	< -0.25
LKQLMRLMECLRCGVGREAP	< -0.25
MGGGERTGAELDMC	< -0.25
VGEKLEGHGRDLWGSGVGFV	< -0.25
DQLS	< -0.25
DRTRGRPTQLGFREVVQGTL	< -0.25
YWIRIKLGHLRLRANSSQNT	< -0.25
SSRYRNLASHTLYMDVFSCT	< -0.25
AFPRT	< -0.25
FRPP	< -0.25
ECVLPGVDSSLSSSPTDMYP	< -0.25
ELTVMRSITHK	< -0.25
EYTTCRAVCRDET	< -0.25
AWVPVLSDYRHAVRTWGQCT	< -0.25
FLPPGFPEGSQGTAAKETCY	< -0.25
VSDAESFRDAGFPPYS	< -0.25
SPGTVPSGPQVAMTPDGQKQ	< -0.25

Substance	growth estimate
PTRRKSRLVSTKLRLKFSYR	< -0.25
NITI	< -0.25
HVNVRVVQECGAAPEVGPKL	< -0.25
LIPGSQALVLRERGTVLLVA	< -0.25
RRDINPPC	< -0.25
AAEYWLGRPRNRR	-0.248
RDSIVP	< -0.25
VKARLYTTEALLSSVQRTMN	< -0.25
LGVLYY	-0.246
QVCIIPRDITPRDDLSRNLG	< -0.25
SGGVEIRGVFSTGKASE	< -0.25
TSFIY	< -0.25
PIWRHELCNLGGLLNLAMRS	< -0.25
ISDGGLHSSGR	< -0.25
DLGTSYSLVVMWSDATSGYP	< -0.25
SSPA	< -0.25
LESQFDNCTYHDSAAVHGIG	< -0.25
AKTNG	< -0.25
ELH	< -0.25
VSSY	< -0.25
GYASIAVLV	< -0.25

Source: the supplement of paper PMC5949888
